Results from patent publication EP1914237B1 (priority 1999, dated 2001).

What follows are compounds tested on HCMV.

| Structure (SMILES) | Selectivity Index |
| --- | --- |
| CCCCCCCCCCCCCCCCCCOCCCOP(=O)(O)CO[C@H](CO)Cn1ccc(N)nc1=O [1-O-octadecylpropanediol-3-CDV] | 1 x 10^6 |
| CCCCCCCCCCCCCCCCOP1(=O)COC(Cn2ccc(N)nc2=O)CO1 (stereo not shown) [Hexadecyl-cCDV] | 163 |
| CCCCCCCCCCCCCCCCCCOCCCOP1(=O)COC(Cn2ccc(N)nc2=O)CO1 (stereo not shown) [1-O-octadecylpropanediol-3-cCDV] | 1 x 10^6 |
| CCCCCCCCCCCCCCCCCCOCCOP1(=O)COC(Cn2ccc(N)nc2=O)CO1 (stereo not shown) [1-O-octadecylethanediol-2-cCDV] | 1 x 10^6 |

The index is printed as in the source, without its formula.
